# According to the supplement of paper PMC7666118:
# Protein sequences, listed by entry. Tags and fused reporters are not part of them. Lines headed by an entry give the natural chain unless they say otherwise; changes in a name come on top.
# UniProt O95402: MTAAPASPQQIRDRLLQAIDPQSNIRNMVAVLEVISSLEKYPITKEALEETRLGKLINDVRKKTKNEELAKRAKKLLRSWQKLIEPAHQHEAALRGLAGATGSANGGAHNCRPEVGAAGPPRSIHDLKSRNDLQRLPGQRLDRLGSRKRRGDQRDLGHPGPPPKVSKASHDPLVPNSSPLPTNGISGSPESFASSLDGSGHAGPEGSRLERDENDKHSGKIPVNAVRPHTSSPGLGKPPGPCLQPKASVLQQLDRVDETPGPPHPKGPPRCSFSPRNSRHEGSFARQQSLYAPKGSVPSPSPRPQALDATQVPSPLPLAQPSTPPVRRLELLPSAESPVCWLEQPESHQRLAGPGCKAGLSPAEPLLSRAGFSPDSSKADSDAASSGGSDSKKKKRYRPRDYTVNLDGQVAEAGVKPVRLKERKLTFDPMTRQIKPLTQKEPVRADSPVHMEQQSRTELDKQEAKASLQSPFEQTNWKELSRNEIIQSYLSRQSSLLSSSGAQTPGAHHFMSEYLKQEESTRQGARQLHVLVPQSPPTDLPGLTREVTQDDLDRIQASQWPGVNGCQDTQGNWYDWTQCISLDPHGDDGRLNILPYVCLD
# UniProt Q9BUK6: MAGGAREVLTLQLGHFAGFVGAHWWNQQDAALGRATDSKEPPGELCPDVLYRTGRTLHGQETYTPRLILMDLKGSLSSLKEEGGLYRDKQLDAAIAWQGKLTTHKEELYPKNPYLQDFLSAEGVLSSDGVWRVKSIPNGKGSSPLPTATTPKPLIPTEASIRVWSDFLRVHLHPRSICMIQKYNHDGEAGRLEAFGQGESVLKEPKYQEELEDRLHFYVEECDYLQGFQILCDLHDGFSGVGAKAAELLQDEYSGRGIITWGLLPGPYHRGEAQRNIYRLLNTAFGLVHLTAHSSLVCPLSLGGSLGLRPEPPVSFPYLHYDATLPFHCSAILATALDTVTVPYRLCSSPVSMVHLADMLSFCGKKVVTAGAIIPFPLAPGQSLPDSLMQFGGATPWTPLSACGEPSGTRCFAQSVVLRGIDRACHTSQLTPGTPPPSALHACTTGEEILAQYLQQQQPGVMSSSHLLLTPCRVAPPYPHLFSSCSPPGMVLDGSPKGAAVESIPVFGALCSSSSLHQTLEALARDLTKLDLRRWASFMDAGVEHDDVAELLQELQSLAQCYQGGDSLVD
# UniProt Q03111: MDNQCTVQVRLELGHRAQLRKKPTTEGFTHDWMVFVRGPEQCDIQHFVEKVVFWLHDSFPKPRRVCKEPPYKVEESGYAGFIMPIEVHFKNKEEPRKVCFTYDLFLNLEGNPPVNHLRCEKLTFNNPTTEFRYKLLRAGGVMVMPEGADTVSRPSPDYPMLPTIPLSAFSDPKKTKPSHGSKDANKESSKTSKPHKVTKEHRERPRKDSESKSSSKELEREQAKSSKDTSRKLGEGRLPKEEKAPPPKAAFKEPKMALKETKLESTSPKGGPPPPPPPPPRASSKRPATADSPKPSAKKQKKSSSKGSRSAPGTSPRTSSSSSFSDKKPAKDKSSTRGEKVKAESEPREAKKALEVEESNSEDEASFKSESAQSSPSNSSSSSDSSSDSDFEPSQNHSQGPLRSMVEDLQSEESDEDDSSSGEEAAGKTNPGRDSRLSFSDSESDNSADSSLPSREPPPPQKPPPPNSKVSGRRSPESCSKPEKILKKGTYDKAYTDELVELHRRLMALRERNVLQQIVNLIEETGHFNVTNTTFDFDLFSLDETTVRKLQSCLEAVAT
# UniProt P10620: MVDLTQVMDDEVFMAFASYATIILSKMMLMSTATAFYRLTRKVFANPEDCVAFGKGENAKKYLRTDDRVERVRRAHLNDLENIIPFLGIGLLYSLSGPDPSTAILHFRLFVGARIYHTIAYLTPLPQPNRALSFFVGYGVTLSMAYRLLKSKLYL
# UniProt P49914: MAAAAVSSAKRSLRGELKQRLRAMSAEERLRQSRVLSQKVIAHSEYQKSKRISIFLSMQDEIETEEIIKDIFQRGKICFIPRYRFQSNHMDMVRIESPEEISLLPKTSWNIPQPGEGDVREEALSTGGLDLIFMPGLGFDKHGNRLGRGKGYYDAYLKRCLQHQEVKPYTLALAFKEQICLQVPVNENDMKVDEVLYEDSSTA
# UniProt P50579: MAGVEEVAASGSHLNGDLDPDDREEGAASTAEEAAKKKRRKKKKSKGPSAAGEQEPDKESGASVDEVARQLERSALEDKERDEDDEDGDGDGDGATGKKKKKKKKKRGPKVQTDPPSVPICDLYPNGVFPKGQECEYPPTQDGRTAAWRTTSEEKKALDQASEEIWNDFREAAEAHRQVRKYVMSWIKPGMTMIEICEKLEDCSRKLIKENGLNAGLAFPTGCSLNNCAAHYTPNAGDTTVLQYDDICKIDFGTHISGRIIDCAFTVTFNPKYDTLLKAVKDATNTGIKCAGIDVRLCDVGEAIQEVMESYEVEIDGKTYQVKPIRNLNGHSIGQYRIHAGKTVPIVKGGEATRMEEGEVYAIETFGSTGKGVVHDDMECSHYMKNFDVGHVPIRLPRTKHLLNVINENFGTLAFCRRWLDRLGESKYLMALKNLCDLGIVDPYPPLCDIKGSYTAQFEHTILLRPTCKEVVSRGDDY
# UniProt Q15049: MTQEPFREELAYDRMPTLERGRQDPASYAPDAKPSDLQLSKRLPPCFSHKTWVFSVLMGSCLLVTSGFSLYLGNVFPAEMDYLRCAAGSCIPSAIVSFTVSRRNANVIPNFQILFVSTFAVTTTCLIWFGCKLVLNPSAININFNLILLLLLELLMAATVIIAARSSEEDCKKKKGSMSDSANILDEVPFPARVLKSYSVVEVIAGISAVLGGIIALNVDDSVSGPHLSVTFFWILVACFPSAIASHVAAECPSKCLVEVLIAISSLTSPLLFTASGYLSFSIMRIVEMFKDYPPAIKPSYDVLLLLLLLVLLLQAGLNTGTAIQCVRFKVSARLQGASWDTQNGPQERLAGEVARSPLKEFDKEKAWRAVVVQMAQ
# UniProt Q8IVH4: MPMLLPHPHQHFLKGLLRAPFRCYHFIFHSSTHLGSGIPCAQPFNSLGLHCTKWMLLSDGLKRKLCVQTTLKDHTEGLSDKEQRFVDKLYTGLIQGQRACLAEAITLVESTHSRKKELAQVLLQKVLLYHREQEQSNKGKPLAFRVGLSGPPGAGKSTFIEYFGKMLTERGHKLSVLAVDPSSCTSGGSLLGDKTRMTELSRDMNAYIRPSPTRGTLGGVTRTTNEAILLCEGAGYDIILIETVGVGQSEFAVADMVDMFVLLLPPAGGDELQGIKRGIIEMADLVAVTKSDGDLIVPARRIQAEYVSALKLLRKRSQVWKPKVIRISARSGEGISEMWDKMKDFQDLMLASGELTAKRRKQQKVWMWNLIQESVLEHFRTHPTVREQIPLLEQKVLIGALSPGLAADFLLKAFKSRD
# UniProt Q8N4V1: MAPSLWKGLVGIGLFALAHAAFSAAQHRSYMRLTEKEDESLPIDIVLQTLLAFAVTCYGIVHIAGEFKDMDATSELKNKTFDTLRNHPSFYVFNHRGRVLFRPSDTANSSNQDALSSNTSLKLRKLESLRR
# UniProt Q99547: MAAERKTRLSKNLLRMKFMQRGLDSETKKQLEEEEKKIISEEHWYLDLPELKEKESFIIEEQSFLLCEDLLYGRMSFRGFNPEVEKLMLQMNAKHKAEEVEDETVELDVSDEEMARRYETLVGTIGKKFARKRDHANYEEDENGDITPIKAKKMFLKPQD
# UniProt P42898: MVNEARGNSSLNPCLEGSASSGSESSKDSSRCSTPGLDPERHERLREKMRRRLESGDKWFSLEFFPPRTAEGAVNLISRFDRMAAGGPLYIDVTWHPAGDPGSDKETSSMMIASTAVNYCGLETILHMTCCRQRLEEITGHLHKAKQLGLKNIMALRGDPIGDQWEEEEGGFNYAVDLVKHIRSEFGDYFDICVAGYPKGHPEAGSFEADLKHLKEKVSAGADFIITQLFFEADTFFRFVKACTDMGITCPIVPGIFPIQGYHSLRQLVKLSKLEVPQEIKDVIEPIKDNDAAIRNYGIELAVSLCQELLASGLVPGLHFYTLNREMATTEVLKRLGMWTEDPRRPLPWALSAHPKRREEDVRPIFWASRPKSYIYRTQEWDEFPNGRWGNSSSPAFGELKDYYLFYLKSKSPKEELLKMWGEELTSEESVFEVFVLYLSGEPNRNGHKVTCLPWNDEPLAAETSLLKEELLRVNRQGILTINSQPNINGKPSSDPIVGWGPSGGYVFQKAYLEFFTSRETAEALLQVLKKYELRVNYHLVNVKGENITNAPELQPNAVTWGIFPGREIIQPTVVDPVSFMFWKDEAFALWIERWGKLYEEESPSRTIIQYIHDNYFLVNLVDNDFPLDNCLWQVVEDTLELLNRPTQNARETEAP
# UniProt Q99417: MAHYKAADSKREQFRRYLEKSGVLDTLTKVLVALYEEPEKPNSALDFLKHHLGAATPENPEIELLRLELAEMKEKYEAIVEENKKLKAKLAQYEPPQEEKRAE
# UniProt Q9NVC6: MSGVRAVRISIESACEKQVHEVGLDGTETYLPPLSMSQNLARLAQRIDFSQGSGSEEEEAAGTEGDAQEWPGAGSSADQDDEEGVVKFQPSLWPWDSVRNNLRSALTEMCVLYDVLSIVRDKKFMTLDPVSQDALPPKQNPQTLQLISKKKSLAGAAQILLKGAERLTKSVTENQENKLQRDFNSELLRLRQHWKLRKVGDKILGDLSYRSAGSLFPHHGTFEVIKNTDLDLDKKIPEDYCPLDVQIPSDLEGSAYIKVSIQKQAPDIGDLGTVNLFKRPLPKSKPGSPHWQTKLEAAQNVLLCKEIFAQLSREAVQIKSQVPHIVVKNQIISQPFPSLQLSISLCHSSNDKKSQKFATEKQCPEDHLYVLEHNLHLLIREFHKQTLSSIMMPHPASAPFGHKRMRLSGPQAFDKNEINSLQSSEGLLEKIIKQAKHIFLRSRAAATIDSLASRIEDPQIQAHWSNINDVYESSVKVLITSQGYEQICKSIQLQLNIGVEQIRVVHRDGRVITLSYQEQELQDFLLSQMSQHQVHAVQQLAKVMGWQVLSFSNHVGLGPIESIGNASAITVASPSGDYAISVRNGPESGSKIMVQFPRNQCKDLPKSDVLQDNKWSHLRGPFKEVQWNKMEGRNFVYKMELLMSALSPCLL
# UniProt Q9H0R1: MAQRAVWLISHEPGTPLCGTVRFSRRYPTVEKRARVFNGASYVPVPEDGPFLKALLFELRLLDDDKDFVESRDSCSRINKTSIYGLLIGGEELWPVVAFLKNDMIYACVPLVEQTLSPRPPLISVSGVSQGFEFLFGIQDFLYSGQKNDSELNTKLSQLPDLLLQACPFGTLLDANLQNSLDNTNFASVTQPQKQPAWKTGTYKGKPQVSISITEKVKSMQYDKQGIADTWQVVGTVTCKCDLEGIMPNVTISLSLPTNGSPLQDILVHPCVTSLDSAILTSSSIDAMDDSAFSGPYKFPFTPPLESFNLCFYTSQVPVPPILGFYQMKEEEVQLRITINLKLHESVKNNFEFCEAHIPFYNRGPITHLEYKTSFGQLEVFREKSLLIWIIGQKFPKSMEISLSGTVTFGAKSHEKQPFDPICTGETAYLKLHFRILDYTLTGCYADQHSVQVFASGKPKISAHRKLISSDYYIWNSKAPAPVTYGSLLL
# UniProt P26572: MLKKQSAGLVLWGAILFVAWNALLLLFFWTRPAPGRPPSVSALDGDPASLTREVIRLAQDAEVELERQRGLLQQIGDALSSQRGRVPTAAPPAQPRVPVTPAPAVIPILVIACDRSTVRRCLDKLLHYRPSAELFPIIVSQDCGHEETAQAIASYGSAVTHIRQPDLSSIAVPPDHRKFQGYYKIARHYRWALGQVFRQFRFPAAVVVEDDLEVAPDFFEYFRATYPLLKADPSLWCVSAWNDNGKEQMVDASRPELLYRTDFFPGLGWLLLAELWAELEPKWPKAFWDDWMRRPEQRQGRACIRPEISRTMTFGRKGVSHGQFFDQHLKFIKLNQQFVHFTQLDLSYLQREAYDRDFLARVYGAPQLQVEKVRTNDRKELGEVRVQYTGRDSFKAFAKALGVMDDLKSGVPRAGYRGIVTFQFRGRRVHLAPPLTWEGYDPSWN
# UniProt Q96EY8: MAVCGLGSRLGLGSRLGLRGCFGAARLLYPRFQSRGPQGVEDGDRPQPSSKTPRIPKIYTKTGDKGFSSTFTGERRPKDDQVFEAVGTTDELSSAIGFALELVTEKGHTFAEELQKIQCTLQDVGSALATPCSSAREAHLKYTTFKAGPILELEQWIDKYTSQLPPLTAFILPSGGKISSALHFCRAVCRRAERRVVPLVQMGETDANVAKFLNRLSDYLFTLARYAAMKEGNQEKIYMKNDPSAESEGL
# UniProt Q15014, whole entry: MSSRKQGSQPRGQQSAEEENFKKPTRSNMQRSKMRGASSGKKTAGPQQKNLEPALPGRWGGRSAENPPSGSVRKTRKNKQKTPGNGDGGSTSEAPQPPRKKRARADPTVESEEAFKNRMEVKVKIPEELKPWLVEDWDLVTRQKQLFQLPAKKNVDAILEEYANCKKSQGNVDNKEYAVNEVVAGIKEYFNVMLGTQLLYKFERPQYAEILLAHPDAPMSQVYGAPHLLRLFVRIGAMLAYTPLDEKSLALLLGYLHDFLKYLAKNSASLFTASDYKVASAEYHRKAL
# The other results are listed elsewhere or left out.
# Compound: COc1ccc(Cn2ccc3cc(C)c(C(=O)NO)cc32)cc1
# Assay: dose-dependent thermal stabilisation call (2D-TPP, DLPTP, 10% FDR) (binary (1 = stabilised)); higher = stabilised by the compound
# Conditions: system: HL-60 intact cells; concentration range 0.04-10 µM
# Description: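 2D thermal proteome profiling in intact HL-60 cells treated with BRD-3811 (0, 0.04, 0.29, 2, 10 uM) for 90 min at 37 C, then heated 3 min at one of 12 temperatures (42-63.9 C). Soluble protein was quantified by TMT10 MS. The value is the DLPTP call of the paper: dose-dependent thermal stabilisation over all temperatures at 10% FDR (F-test of a dose-response against a flat model); one experiment, one call per tested protein.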
row,Target,dose-dependent thermal stabilisation call
1,MRPS25 (UniProt P82663),inactive: 0
2,MED26 (UniProt O95402),inactive: 0
3,METTL7A (UniProt Q9H8H3),inactive: 0
4,MRPS6 (UniProt P82932),inactive: 0
5,MRPL51 (UniProt Q4U2R6),inactive: 0
6,METAP1 (UniProt P53582),inactive: 0
7,MSTO1 (UniProt Q9BUK6),inactive: 0
8,MRPL50 (UniProt Q8N5N7),inactive: 0
9,MLLT1 (UniProt Q03111),inactive: 0
10,MGST1 (UniProt P10620),inactive: 0
11,MYL6B (UniProt P14649),inactive: 0
12,MTHFS (UniProt P49914),inactive: 0
13,METAP2 (UniProt P50579),inactive: 0
14,MRPS10 (UniProt P82664),inactive: 0
15,MPG (UniProt P29372),inactive: 0
16,MTIF2 (UniProt P46199),inactive: 0
17,MTMR1 (UniProt Q13613),inactive: 0
18,MLC1 (UniProt Q15049),inactive: 0

row,Target,dose-dependent thermal stabilisation call
1,MMAA (UniProt Q8IVH4),inactive: 0
2,MMGT1 (UniProt Q8N4V1),inactive: 0
3,MPHOSPH6 (UniProt Q99547),inactive: 0
4,MRPL22 (UniProt Q9NWU5),inactive: 0
5,MTHFR (UniProt P42898),inactive: 0
6,MYCBP (UniProt Q99417),inactive: 0
7,MED17 (UniProt Q9NVC6),inactive: 0
8,MUDENG (UniProt Q9H0R1),inactive: 0
9,MLF2 (UniProt Q15773),inactive: 0
10,MRPS23 (UniProt Q9Y3D9),inactive: 0
11,METTL2B (UniProt Q6P1Q9),inactive: 0
12,MGAT1 (UniProt P26572),inactive: 0
13,MMAB (UniProt Q96EY8),inactive: 0
14,MPP6,inactive: 0
15,MLL2,inactive: 0
16,MORF4L2 (UniProt Q15014),inactive: 0
17,MINA (UniProt Q8IUF8),inactive: 0
18,MSRB3 (UniProt Q8IXL7),inactive: 0

# Copied from above (three entries):
row,Target,dose-dependent thermal stabilisation call
2,MMGT1 (UniProt Q8N4V1),inactive: 0
3,MPHOSPH6 (UniProt Q99547),inactive: 0
4,MRPL22 (UniProt Q9NWU5),inactive: 0
